The other results are listed elsewhere or left out.

This is an account of results in the supplement of paper PMC8728848.

Holding throughout (assay): glycan array binding signal (z-score within array); higher = stronger binding
Holding throughout (settings): glycan notation: IUPAC condensed, linker removed

The target of assay [1] is Glc(a1-6)Glc(a1-6)Glc(a1-6)Glc. In a few lines:
(§1)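 The binding signal is a Z-score computed within each array. Data were drawn from 3228 arrays in the Consortium for Functional Glycomics database, restricted to those with a known protein sequence. Scores were averaged over arrays of the same protein sequence at different concentrations or buffers, and over linkers, and negative values can be taken as non-binding.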

Another assay deals with Glc(b1-4)Glc. In a few lines:
as §1

The target in another assay is Glc(b1-6)Glc. In a few lines: as §1
The target of another assay is GlcA(b1-3)Gal. In a few lines:
as §1

In another assay the target is GlcA(b1-3)GlcNAc. In a few lines: as §1
The target of the next assay is GlcA(b1-6)Gal. The procedure, abridged: as §1
Assay [2] concerns the target GlcA3S(b1-3)Gal(b1-4)GlcNAc(b1-2)Man. The procedure, abridged:
as §1

Assay [3] concerns the target GlcA3S(b1-3)Gal(b1-4)GlcNAc(b1-3)Gal(b1-4)Glc. In a few lines: as §1
Assay [4] deals with GlcNAc(a1-3)Gal(b1-4)GlcNAc. In a few lines: as §1
In assay [5] the target is GlcNAc(a1-4)Gal(b1-3)GlcNAc. In a few lines:
as §1

Assay [6] addresses GlcNAc(a1-4)Gal(b1-4)GalNAc. In a few lines:
as §1

The target of assay [7] is GlcNAc(a1-4)Gal(b1-4)GlcNAc. In a few lines:
as §1

The target in assay [8] is GlcNAc(a1-4)Gal(b1-4)GlcNAc(b1-3)Gal(b1-4)Glc. In a few lines:
as §1

For assay [9], the target named is GlcNAc(a1-4)Gal(b1-4)GlcNAc(b1-3)Gal(b1-4)GlcNAc. The procedure, abridged: as §1
In assay [10] the target is GlcNAc(a1-4)Gal(b1-4)GlcNAc(b1-3)Gal(b1-4)GlcNAc(b1-3)Gal(b1-4)GlcNAc. In a few lines: as §1
Assay [11] concerns the target GlcNAc(a1-4)Gal(b1-4)GlcNAc(b1-3)Gal(b1-4)[Fuc(a1-3)]GlcNAc(b1-3)Gal(b1-4)[Fuc(a1-3)]GlcNAc. The procedure, abridged: as §1
Assay [12] addresses GlcNAc(a1-6)Gal(b1-4)GlcNAc. In a few lines: as §1
For assay [13], the target named is GlcNAc(b1-2)Gal(b1-3)GalNAc. The procedure, abridged:
as §1

Assay [14] concerns the target GlcNAc(b1-2)Man(a1-3)[GlcNAc(b1-2)Man(a1-6)]Man(b1-4)GlcNAc(b1-4)GlcNAc. In a few lines:
as §1

Assay [15] has as its target GlcNAc(b1-2)Man(a1-3)[GlcNAc(b1-2)Man(a1-6)]Man(b1-4)GlcNAc(b1-4)[Fuc(a1-6)]GlcNAc. The procedure, abridged:
as §1

The target in assay [16] is GlcNAc(b1-2)Man(a1-3)[GlcNAc(b1-4)][GlcNAc(b1-2)Man(a1-6)]Man(b1-4)GlcNAc(b1-4)GlcNAc. The procedure, abridged: as §1
Assay [17] addresses GlcNAc(b1-2)Man(a1-3)[GlcNAc(b1-4)][GlcNAc(b1-2)Man(a1-6)]Man(b1-4)GlcNAc(b1-4)[Fuc(a1-6)]GlcNAc. The procedure, abridged:
as §1

B1: Flo1 (Saccharomyces cerevisiae), P32768 (protein)
chain: SGATEACLPAGQRKSGMNINFYQYSLKDSSTYSNAAYMAYGYASKTKLGSVGGQTDISIDYNIPCVSSSGTFPCPQEDSYGNWGCKGMGACSNSQGIAYWSTDLFGFYTTPTNVTLEMTGYFLPPQTGSYTFKFATVDDSAILSVGGATAFNCCAQQQPPITSTNFTIDGIKPWGGSLPPNIEGTVYMYAGYYYPMKVVYSNAVSWGTLPISVTLPDGTTVSDDFEGYVYSFDDDLSQSNCTVPDPSNY
Regarding B1, the “glycan array binding signal (z-score)” value in [1] was -0.3; with Glc(b1-4)Glc, -0.812; with Glc(b1-6)Glc it was -0.354; with GlcA(b1-3)Gal, -0.302; with GlcA(b1-3)GlcNAc, 2.06; with GlcA(b1-6)Gal, -0.12. For the same molecule, the “glycan array binding signal (z-score)” value is 0.219 in assay [2]; 0.39 in [3]; -0.432 in [4]; 0.266 in [5]; 0.83 in assay [6]; -0.308 in assay [7]. Also, the “glycan array binding signal (z-score)” value in assay [8] was -0.109; in assay [9], -0.268; in [10], 0.101; in [11], 2.23; in [12], -0.009; in [13], 0.066. Besides, the “glycan array binding signal (z-score)” value was -0.005 in [14], 0.814 in assay [15], -0.631 in assay [16] and 0.011 in assay [17].
